# PubChem BioAssay AID1053208 | Peter MacCallum Cancer Centre | 2014
# Aim: 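Find knock-downs that sensitise mouse osteosarcoma cells to doxorubicin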 (primary screen)
# System: mouse osteosarcoma cells, early-passage culture from an engineered mouse model of fibroblastic bone tumour
# Reagents: siRNA pool against mouse genes, 40 nM
# Time to read-out: about 120 h (48 h before drug, then 72 h with drug)
# Challenge: doxorubicin 100 nM for 72 h, roughly 30-40% inhibitory dose
# Detection: 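Viability read as ATP luminescence after 72 h of 100 nM doxorubicin or none, duplicate wells averaged, scaled to non-targeting siRNA, then expressed as robust z-scores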
# Scale: viability z-score with doxorubicin and doxorubicin viability vs non-targeting: higher = more viable cells under doxorubicin; viability z-score without drug: higher = more viable cells with knock-down alone; z-score of drug to no-drug ratio: higher = less drug sensitisation by knock-down
# Rule for the call: 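a pool counts as active when its viability z-score with doxorubicin is -2 or below and its z-score without drug lies between -2 and 2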
# Here is an unselected part of about 17,000 reagents. In the full data, 788 (4.7%) got an active call. 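Calls rest on z-score classes alone; an extra cut-off of viability at most 70% of control was not applied to them.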 No sequences are given here.
gene,combined z-score class,viability z-score with doxorubicin,viability z-score without drug,z-score of drug to no-drug ratio,doxorubicin viability vs non-targeting,Call
Erp44,no change with or without drug,-1.8,-0.34,-1.57,0.78,inactive
Tedc1,high cell count without drug only,0.11,2.36,-1.24,0.95,inactive
Mettl18,no change with or without drug,0.67,-0.17,0.9,1,inactive
Vipr2,no change with or without drug,0.9,0.67,0.56,1.02,inactive
Sp6,no change with or without drug,-1.12,-1.01,-0.45,0.84,inactive
Rnf220,no change with or without drug,-0.34,-0.84,0.34,0.91,inactive
Kctd7,low cell count with doxorubicin only,-2.02,-0.84,-1.57,0.76,active
Casp7,no change with or without drug,1.91,1.01,1.35,1.11,inactive
Fbf1,low cell count with doxorubicin only,-2.25,-0.67,-1.91,0.74,active
Adam15,no change with or without drug,0.22,-0.17,0.45,0.96,inactive
Tef,low cell count with doxorubicin only,-2.14,-1.35,-1.35,0.75,active
Zbtb26,no change with or without drug,-0.22,0.84,-0.67,0.92,inactive
Trim28,no change with or without drug,-0.79,-0.17,-0.56,0.87,inactive
Drap1,no change with or without drug,1.12,-0.84,2.02,1.04,inactive
Pkn1,no change with or without drug,0,0.17,0,0.94,inactive
Gdi1,no change with or without drug,-0.9,-0.84,-0.22,0.86,inactive
Epas1,no change with or without drug,-0.11,0.34,-0.22,0.93,inactive
Kyat1,no change with or without drug,-0.67,-0.51,-0.22,0.88,inactive
Dmac2,no change with or without drug,-1.12,-0.17,-1.01,0.84,inactive
Ap1ar,no change with or without drug,1.69,-0.51,2.25,1.09,inactive
H2-T23,no change with or without drug,-0.56,-0.51,-0.11,0.89,inactive
Nob1,no change with or without drug,-0.11,0.17,-0.11,0.93,inactive
Cisd2,no change with or without drug,-1.35,0.34,-1.46,0.82,inactive
Aif1,low cell count with doxorubicin only,-2.02,-0.84,-1.57,0.76,active
Plppr3,no change with or without drug,-0.45,1.18,-1.12,0.9,inactive
Pcdhb3,high cell count without drug only,1.12,2.53,-0.34,1.04,inactive
Or51a24,no change with or without drug,-1.91,-0.34,-1.69,0.77,inactive
Rfx3,no change with or without drug,-0.45,0.34,-0.56,0.9,inactive
Kir3dl2,no change with or without drug,-0.9,-0.17,-0.79,0.86,inactive
Rap1a,no change with or without drug,1.57,0.51,1.35,1.08,inactive
Rad51c,no change with or without drug,0.9,-1.01,1.91,1.02,inactive
Mybpc2,no change with or without drug,-0.9,-0.51,-0.56,0.86,inactive
Fkbp11,no change with or without drug,0,1.01,-0.56,0.94,inactive
Tas2r134,no change with or without drug,1.46,1.52,0.56,1.07,inactive
Ggta1,high cell count without drug only,1.01,2.36,-0.45,1.03,inactive
Thbs4,no change with or without drug,-1.46,-0.51,-1.12,0.81,inactive
Pde12,no change with or without drug,1.35,0.84,0.9,1.06,inactive
4932415M13Rik,low cell count without drug only,-1.35,-2.19,0.22,0.82,inactive
Sec24c,no change with or without drug,0.9,0.17,0.9,1.02,inactive
Pck1,no change with or without drug,0.22,-0.51,0.67,0.96,inactive
Npff,no change with or without drug,0,-1.01,0.9,0.94,inactive
Dtx3,no change with or without drug,-1.35,0.17,-1.46,0.82,inactive
R3hdm1,no change with or without drug,0,-0.51,0.45,0.94,inactive
Ube2o,no change with or without drug,-1.35,-0.84,-0.79,0.82,inactive
Agfg2,no change with or without drug,0.67,0.84,0.22,1,inactive
Aldh16a1,low cell count with doxorubicin only,-3.6,-1.69,-2.81,0.62,active
Slc6a14,no change with or without drug,-0.22,1.35,-1.01,0.92,inactive
Sstr5,no change with or without drug,-1.01,-0.67,-0.56,0.85,inactive
Snrpd3,low cell count with and without drug,-7.87,-4.22,-7.19,0.24,inactive
Or2o1,no change with or without drug,0.34,-0.34,0.67,0.97,inactive
Or2g7,no change with or without drug,-1.57,-0.51,-1.24,0.8,inactive
Aspa,no change with or without drug,0.67,-0.84,1.46,1,inactive
Med17,no change with or without drug,-1.8,-0.84,-1.24,0.78,inactive
Slc25a12,low cell count with doxorubicin only,-2.14,0.17,-2.25,0.75,active
Gimap9,no change with or without drug,-0.22,0,-0.11,0.92,inactive
Foxe1,no change with or without drug,0.45,0.84,0,0.98,inactive
Dld,no change with or without drug,0.67,0.34,0.56,1,inactive
Dennd6b,high cell count without drug only,-0.11,3.2,-1.8,0.93,inactive
Reg1,low cell count with and without drug,-7.87,-6.41,-6.3,0.24,inactive
Or55b4,no change with or without drug,-1.57,-1.52,-0.56,0.8,inactive
Tfeb,no change with or without drug,0.45,1.18,-0.22,0.98,inactive
Pantr1,no change with or without drug,-1.35,0.17,-1.46,0.82,inactive
Nhlh2,high cell count without drug only,1.01,2.53,-0.45,1.03,inactive

Records above whose gene name starts with C or c:
gene,combined z-score class,viability z-score with doxorubicin,viability z-score without drug,z-score of drug to no-drug ratio,doxorubicin viability vs non-targeting,Call
Casp7,no change with or without drug,1.91,1.01,1.35,1.11,inactive
Cisd2,no change with or without drug,-1.35,0.34,-1.46,0.82,inactive
